Assay: general procedure: Boc solid-phase peptide synthesis; chloromethylated polystyrene resin crosslinked with 1 to 2 percent divinylbenzene (Lab Systems, Inc.); dicyclohexylcarbodiimide
Settings: whole synthesis, scale 8.8 mmol

Substance: N-Benzyloxycarbonyl-D-2-azetidinecarbonyl-N^im -benzyl-L-histidyl-O-benzyl-L-tyrosyl-O-benzyl-L-seryl-D-alanine methyl ester
- isolated mass: 4.1 g

Substance: N^α -Benzyloxycarbonyl-L-2-azetidinylcarbonyl-N^im -benzyl-L-histidyl-O-benzyl-L-tyrosyl-O-benzyl-L-seryl-D-alanine methyl ester
- isolated mass: 4.1 g

Source: patent US4043993A (Parke, Davis & Company, priority 1976, dated 1977)
